{"sequences": {"note": "Protein sequences, listed by entry. Tags and fused reporters are not part of them. Lines headed by an entry give the natural chain unless they say otherwise; changes in a name come on top.", "UniProt Q01638": "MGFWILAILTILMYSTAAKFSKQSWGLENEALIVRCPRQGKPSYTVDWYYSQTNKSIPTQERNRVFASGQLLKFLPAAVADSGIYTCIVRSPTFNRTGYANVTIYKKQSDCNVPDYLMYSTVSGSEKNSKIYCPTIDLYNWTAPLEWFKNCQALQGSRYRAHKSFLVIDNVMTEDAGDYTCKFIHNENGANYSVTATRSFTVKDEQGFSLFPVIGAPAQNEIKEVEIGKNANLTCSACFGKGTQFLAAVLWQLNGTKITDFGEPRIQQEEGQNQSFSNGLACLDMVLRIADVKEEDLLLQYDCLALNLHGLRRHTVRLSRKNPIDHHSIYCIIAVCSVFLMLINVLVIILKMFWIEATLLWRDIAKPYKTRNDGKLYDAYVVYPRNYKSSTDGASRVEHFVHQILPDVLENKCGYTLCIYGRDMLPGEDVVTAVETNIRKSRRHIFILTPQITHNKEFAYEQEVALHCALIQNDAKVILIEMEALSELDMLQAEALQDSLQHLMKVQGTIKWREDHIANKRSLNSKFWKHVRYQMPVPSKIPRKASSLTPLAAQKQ"}, "source": "PubChem BioAssay AID1259354", "about": "(Paczesny and Yang Labs, IUPUI and University of Michigan, 2018)", "note": "Values joined by “and” are separate entries in the source; they are usually repeats but may differ in a detail not shown here. Identical values can stand only once. Among all 78,000 compounds or so, about 1,800 (2.3%) were called active. The shares of active, inactive and inconclusive entries below differ from those in the screen. No stated cut-off is given here; in the data, active means inhibition above about 30%; inconclusive means mostly about 10% to 28%; inactive means weaker than that.", "data": [{"target": "Interleukin-1 receptor-like 1 (Homo sapiens) (UniProt Q01638)", "assay": "blocks human ST2 binding to IL-33, primary screen, biochemical, AlphaLISA (AID 1259354)", "details": "AlphaLISA ST2-Fc/biotin-IL-33 interaction, 1 h; at 17 µM, stronger effect = higher value", "values": [{"smiles": "Cc1cccc(C(=O)Nc2ccc(C)c([N+](=O)[O-])c2)c1", "inhibition": "inconclusive: 24%"}, {"smiles": "COc1cc(CN(C)Cc2nc3ccccc3n2C)cc(F)c1O", "inhibition": "inactive"}, {"smiles": "CN(Cc1cc(-c2ccncc2)no1)C(=O)[C@@H]1C[C@@H]2C=C[C@H]1C2", "inhibition": "inconclusive: 21%"}, {"smiles": "Cc1csc2ncc(C(=O)Nc3cc(Cl)ccc3Cl)c(=O)n12", "inhibition": "inactive"}, {"smiles": "CCOC(=O)N1CCN(C(=O)c2ccc(N3CCC(NCCc4cccs4)CC3)cc2)CC1", "inhibition": "inactive"}, {"smiles": "O=C(COc1ccccc1O)NO", "inhibition": "inactive"}, {"smiles": "CCN1CCCC1CNC(=O)C1(O)c2ccccc2NC(=O)N1c1cccc(OC)c1", "note": "(centres undefined)", "inhibition": "inactive"}, {"smiles": "CC1(C)[C@@H]2CC[C@H](CNC(=O)c3cc(Cn4cnc5ccccc54)[nH]n3)[C@H]1C2", "inhibition": "inactive"}, {"smiles": "O=C(c1cc2ncc(CCO)cn2n1)N1CCC1c1ccc(F)cc1", "note": "(centres undefined)", "inhibition": "inconclusive: 18%"}, {"smiles": "CN1CC2(CCCN(C(=O)c3cn4cccnc4n3)C2)OC1=O", "note": "(centres undefined)", "inhibition": "inconclusive: 13%"}, {"smiles": "CN1C[C@@H](NC(=O)C2CCCCC2)C[C@H]1c1nc(-c2ccccc2)no1", "inhibition": "inactive"}, {"smiles": "Cc1ccc(N2C(=O)C3C4C=CC(O4)C3C2=O)cc1[N+](=O)[O-]", "note": "(centres undefined)", "inhibition": "inactive"}, {"smiles": "CCN1CCN(C(c2cccs2)C(C)NS(=O)(=O)c2ccc(F)cc2)CC1", "note": "(centres undefined)", "inhibition": "inconclusive: 12%"}, {"smiles": "O=C(C(c1ccccc1)C1CCCC1)N1CCC(O)(C(=O)O)CC1", "note": "(centres undefined)", "inhibition": "inconclusive: 13%"}, {"smiles": "CN(Cc1ccccc1)C(=O)CCN1C(=O)c2ccccc2C1=O", "inhibition": "inactive"}, {"smiles": "COc1ccc(C2=NN(S(=O)(=O)c3ccccc3)C(c3ccccc3Cl)C2)cc1OC", "note": "(centres undefined)", "inhibition": "inconclusive: 11%"}, {"smiles": "CCOC(=O)c1sc2nc(C)nc(NC3CCCCC3)c2c1C", "inhibition": "inconclusive: 13%"}, {"smiles": "C=CCn1c(=O)c(-c2nc3ccccc3c(=O)[nH]2)c(O)c2ccccc21", "inhibition": "inconclusive: 23%"}, {"smiles": "O=C(Oc1cccc(Cl)c1)N1CCOCC1", "inhibition": "inconclusive: 18%"}, {"smiles": "CCOC(=O)C1CCN(C(=O)CNS(=O)(=O)c2cccs2)CC1", "inhibition": "inconclusive: 10%"}, {"smiles": "O=C(CSC1=Nc2ccccc2C2=NC(c3ccccc3)C(=O)N12)Nc1cccc(Cl)c1", "note": "(centres undefined)", "inhibition": "inactive"}, {"smiles": "COCCNC(=O)C[C@@H]1O[C@H](CNCc2cccc(Cl)c2)[C@@H](O)[C@H]1O", "inhibition": "inconclusive: 23%"}, {"smiles": "CCCCn1cnc2cc(NCc3cc(OC)ccc3OC)ccc21", "inhibition": "inconclusive: 14%"}, {"smiles": "CCC(C)NC(=O)c1cc2cc3ccc(Cl)cc3nc2o1", "note": "(centres undefined)", "inhibition": "active: 31% and inconclusive: 22%"}, {"smiles": "COc1ccccc1-n1cc(CN2CC(=O)N(Cc3cccnc3)CC(OC)C2)cn1", "note": "(centres undefined)", "inhibition": "inconclusive: 23%"}, {"smiles": "COCCN[C@@H]1C[C@@H]2c3[nH]c4ccccc4c3C[C@@H](C(=O)OC)N2[C@H](c2cccc(OC)c2)C1", "inhibition": "inconclusive: 21%"}, {"smiles": "Nc1ccc(/C=C/C2C=CC=CC2)cc1", "note": "(centres undefined)", "inhibition": "active: 47%"}, {"smiles": "CC(=O)Nc1ccc(-c2cn(CC(N)=O)cn2)cc1", "inhibition": "inactive"}, {"smiles": "COc1ccc(Cl)cc1NC(=O)CSc1nc2c(c(=O)n1-c1ccc(C)cc1)SCC2", "inhibition": "inconclusive: 23%"}, {"smiles": "CCOCCCNC(=O)CC12CC3CC(CC(C3)C1)C2", "inhibition": "inactive"}, {"smiles": "CC1CCN(CCCNC(=O)C2CC(=O)N(C3CCCCCC3)C2)CC1", "note": "(centres undefined)", "inhibition": "inconclusive: 15%"}, {"smiles": "Cc1c(NC(=O)c2ccco2)cccc1C(=O)NC(C)c1cccs1", "note": "(centres undefined)", "inhibition": "inconclusive: 18%"}, {"smiles": "COCCNS(=O)(=O)c1cc(Br)cc2c1N(C(=O)C1CC1)CC2", "inhibition": "inactive"}, {"smiles": "Cc1cccc(C)c1NC(=O)Nc1ccc(Cl)cc1", "inhibition": "inconclusive: 14%"}, {"smiles": "O=C(NCC1(c2ccccc2)CCOCC1)c1ccccc1[N+](=O)[O-]", "inhibition": "inactive"}, {"smiles": "CCc1ccc2nc(N3CCCN(C(=O)COC)CC3)cc(C)c2c1", "inhibition": "inactive"}, {"smiles": "CCC(C)NC(=O)c1cc2nc(-c3ccc(Cl)cc3)cc(C(F)(F)F)n2n1", "note": "(centres undefined)", "inhibition": "inconclusive: 10%"}, {"smiles": "CC(C)(O)C#Cc1ccc(CN2CCCn3cncc3C2)s1", "inhibition": "inconclusive: 15%"}, {"smiles": "Oc1[nH]c2ccccc2c1C(=C1N=c2ccccc2=N1)c1ccccc1", "inhibition": "inconclusive: 19%"}, {"smiles": "CC1CCCN(S(=O)(=O)c2ccc3c(c2)CCN3C(=O)C2CC2)C1", "note": "(centres undefined)", "inhibition": "inactive"}, {"smiles": "CCN(Cc1ccc(C(=O)Nc2ccccc2C)cc1)Cc1noc(C)n1", "inhibition": "inconclusive: 17%"}, {"smiles": "C=CCNC(=O)c1cc(-c2ccc(OC)c(OC)c2)on1", "inhibition": "inactive"}, {"smiles": "O=[N+]([O-])c1ccc(N2CCCC2)cc1Sc1nnnn1-c1ccccc1", "inhibition": "inconclusive: 20%"}, {"smiles": "O=C(Nc1ccccc1)N[C@H]1C[C@H]2C(=O)NC[C@@H](CCC(=O)N3CCN(c4ccccc4)CC3)N2C1", "inhibition": "inconclusive: 14%"}, {"smiles": "COc1ccc2cc3cc(C(=O)Nc4ccc(F)cc4)sc3nc2c1", "inhibition": "active: 35%"}, {"smiles": "CCn1cc(-c2c(-c3ccccc3)ncn2C(C)c2cnn(C)c2)c(C)n1", "note": "(centres undefined)", "inhibition": "inconclusive: 22%"}, {"smiles": "O=[N+]([O-])c1cccc(C2SCCN2S(=O)(=O)c2ccc(Cl)c(Cl)c2)c1", "note": "(centres undefined)", "inhibition": "inactive"}, {"smiles": "O=S(=O)(Nc1ccc(O)c(Cl)c1)c1ccccc1", "inhibition": "inconclusive: 10%"}, {"smiles": "c1nc(N2CCN(Cc3ccc4c(c3)OCO4)CC2)c2[nH]cnc2n1", "inhibition": "inconclusive: 18%"}, {"smiles": "O=C(CCC1CCCN(C(=O)CCc2cccs2)C1)NC1CC1", "note": "(centres undefined)", "inhibition": "inconclusive: 14%"}, {"smiles": "CNC(=O)C1CCC(Cn2c(=O)c3sccc3n(CC(=O)NCCC(C)C)c2=O)CC1", "note": "(centres undefined)", "inhibition": "inactive"}, {"smiles": "Cn1c2c(c(=O)n(C)c1=O)C(c1ccc(Cl)cc1Cl)C1C(=O)c3ccccc3C1=N2", "note": "(centres undefined)", "inhibition": "inconclusive: 19%"}, {"smiles": "COc1ccccc1N/C=C(\\C#N)c1nc(-c2ccc3c(c2)OCO3)cs1", "inhibition": "active: 41%"}, {"smiles": "COCCOc1cc(C)c2c(c1C)C[C@H]([C@H](C)C(=O)N1CCC(O)CC1)CC2", "inhibition": "inconclusive: 14%"}, {"smiles": "C=CC1(C)CC(OC(=O)C(=C)C(O)COC(C)=O)C(C(=C)C(=O)OC)C(O)C1C(=C)CO", "note": "(centres undefined)", "inhibition": "inconclusive: 14%"}, {"smiles": "Cc1ccc(OCc2occc2C(=O)N2CCCn3cncc3C2)cc1", "inhibition": "inconclusive: 19%"}, {"smiles": "O=C(c1ccc(N2CCC(NCc3cccc(Cl)c3)CC2)cc1)N1CCCC(CO)C1", "note": "(centres undefined)", "inhibition": "inconclusive: 23%"}, {"smiles": "COc1cc(C2C3=C(Nc4c2c(=O)n(C)c(=O)n4C)c2ccccc2C3=O)cc(OC)c1OC", "note": "(centres undefined)", "inhibition": "inconclusive: 15%"}, {"smiles": "Cc1cc(-c2nc(-c3ccccn3)no2)ccc1[N+](=O)[O-]", "inhibition": "inconclusive: 13%"}]}]}
